The other results are listed elsewhere or left out.
Assays:
Experiment in all cases: log2 fold change, soluble protein after heating vs DMSO (PISA); higher = thermal stabilisation; K562 cells, 10 uM, 30 min; active = over 0.2 and 3.5 SD of the protein, either way, in both replicates (recomputed)
[1] = compound: COC1=CC=C(C=C1)CN2C=CC3=C2C=C(C=C3)C(=O)NO
How it was run: (§1)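 Soluble protein was defined as the supernatant after 21,000xg for 90 min. It came from K562 cells at 2×10^6 cells/mL given 10 μM compound for 30 min, heated in aliquots for 3 min across 48°C-58°C, pooled, and extracted in PBS with 0.5% NP-40 at 4°C, and was quantified by TMTpro 16plex LC-MS/MS with equalised channel sums. Thermal stability against control samples, from duplicates, is reported as log2 fold change.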

The chains behind the UniProt entries cited, without tags or fusion partners. Where a name states a change or a piece, a line headed by the entry shows the natural chain unless it says otherwise.
UniProt Q15517: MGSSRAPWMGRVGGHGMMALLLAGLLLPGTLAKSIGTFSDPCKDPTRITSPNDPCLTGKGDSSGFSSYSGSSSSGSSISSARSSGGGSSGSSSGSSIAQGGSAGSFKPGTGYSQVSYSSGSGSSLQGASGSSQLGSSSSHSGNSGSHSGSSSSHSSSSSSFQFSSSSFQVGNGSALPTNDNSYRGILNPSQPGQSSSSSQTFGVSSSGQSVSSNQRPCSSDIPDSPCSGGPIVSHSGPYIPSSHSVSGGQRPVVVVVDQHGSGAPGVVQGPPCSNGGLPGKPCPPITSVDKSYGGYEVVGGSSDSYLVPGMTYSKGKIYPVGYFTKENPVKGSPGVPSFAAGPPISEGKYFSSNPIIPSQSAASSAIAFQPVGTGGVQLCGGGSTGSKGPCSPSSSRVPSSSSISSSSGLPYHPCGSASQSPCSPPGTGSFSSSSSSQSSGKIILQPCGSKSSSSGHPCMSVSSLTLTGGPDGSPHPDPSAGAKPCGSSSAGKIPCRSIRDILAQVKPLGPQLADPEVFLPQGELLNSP
UniProt Q9H5V8, whole entry, looked up: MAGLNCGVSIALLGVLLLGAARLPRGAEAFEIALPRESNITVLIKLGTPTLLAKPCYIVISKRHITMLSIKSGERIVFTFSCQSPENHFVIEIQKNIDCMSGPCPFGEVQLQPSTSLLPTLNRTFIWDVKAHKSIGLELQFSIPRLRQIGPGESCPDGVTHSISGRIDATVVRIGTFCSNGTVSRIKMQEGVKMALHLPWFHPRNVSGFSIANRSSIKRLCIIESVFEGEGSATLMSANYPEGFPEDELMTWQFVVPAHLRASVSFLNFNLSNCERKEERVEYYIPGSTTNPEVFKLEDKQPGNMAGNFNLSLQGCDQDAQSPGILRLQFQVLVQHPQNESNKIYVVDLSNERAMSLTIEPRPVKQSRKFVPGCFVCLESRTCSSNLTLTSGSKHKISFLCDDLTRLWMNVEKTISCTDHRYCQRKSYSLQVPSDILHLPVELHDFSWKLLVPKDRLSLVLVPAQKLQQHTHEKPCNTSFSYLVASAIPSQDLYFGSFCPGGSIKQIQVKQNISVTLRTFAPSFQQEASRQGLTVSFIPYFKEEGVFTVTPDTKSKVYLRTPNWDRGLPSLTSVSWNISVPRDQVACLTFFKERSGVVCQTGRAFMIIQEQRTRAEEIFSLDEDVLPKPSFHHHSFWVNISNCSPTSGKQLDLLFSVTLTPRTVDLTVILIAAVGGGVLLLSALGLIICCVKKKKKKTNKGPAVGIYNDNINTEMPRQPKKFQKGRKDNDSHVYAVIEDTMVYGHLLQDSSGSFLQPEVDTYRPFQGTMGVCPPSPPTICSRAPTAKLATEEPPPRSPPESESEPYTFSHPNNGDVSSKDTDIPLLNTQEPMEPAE
UniProt Q5VT06: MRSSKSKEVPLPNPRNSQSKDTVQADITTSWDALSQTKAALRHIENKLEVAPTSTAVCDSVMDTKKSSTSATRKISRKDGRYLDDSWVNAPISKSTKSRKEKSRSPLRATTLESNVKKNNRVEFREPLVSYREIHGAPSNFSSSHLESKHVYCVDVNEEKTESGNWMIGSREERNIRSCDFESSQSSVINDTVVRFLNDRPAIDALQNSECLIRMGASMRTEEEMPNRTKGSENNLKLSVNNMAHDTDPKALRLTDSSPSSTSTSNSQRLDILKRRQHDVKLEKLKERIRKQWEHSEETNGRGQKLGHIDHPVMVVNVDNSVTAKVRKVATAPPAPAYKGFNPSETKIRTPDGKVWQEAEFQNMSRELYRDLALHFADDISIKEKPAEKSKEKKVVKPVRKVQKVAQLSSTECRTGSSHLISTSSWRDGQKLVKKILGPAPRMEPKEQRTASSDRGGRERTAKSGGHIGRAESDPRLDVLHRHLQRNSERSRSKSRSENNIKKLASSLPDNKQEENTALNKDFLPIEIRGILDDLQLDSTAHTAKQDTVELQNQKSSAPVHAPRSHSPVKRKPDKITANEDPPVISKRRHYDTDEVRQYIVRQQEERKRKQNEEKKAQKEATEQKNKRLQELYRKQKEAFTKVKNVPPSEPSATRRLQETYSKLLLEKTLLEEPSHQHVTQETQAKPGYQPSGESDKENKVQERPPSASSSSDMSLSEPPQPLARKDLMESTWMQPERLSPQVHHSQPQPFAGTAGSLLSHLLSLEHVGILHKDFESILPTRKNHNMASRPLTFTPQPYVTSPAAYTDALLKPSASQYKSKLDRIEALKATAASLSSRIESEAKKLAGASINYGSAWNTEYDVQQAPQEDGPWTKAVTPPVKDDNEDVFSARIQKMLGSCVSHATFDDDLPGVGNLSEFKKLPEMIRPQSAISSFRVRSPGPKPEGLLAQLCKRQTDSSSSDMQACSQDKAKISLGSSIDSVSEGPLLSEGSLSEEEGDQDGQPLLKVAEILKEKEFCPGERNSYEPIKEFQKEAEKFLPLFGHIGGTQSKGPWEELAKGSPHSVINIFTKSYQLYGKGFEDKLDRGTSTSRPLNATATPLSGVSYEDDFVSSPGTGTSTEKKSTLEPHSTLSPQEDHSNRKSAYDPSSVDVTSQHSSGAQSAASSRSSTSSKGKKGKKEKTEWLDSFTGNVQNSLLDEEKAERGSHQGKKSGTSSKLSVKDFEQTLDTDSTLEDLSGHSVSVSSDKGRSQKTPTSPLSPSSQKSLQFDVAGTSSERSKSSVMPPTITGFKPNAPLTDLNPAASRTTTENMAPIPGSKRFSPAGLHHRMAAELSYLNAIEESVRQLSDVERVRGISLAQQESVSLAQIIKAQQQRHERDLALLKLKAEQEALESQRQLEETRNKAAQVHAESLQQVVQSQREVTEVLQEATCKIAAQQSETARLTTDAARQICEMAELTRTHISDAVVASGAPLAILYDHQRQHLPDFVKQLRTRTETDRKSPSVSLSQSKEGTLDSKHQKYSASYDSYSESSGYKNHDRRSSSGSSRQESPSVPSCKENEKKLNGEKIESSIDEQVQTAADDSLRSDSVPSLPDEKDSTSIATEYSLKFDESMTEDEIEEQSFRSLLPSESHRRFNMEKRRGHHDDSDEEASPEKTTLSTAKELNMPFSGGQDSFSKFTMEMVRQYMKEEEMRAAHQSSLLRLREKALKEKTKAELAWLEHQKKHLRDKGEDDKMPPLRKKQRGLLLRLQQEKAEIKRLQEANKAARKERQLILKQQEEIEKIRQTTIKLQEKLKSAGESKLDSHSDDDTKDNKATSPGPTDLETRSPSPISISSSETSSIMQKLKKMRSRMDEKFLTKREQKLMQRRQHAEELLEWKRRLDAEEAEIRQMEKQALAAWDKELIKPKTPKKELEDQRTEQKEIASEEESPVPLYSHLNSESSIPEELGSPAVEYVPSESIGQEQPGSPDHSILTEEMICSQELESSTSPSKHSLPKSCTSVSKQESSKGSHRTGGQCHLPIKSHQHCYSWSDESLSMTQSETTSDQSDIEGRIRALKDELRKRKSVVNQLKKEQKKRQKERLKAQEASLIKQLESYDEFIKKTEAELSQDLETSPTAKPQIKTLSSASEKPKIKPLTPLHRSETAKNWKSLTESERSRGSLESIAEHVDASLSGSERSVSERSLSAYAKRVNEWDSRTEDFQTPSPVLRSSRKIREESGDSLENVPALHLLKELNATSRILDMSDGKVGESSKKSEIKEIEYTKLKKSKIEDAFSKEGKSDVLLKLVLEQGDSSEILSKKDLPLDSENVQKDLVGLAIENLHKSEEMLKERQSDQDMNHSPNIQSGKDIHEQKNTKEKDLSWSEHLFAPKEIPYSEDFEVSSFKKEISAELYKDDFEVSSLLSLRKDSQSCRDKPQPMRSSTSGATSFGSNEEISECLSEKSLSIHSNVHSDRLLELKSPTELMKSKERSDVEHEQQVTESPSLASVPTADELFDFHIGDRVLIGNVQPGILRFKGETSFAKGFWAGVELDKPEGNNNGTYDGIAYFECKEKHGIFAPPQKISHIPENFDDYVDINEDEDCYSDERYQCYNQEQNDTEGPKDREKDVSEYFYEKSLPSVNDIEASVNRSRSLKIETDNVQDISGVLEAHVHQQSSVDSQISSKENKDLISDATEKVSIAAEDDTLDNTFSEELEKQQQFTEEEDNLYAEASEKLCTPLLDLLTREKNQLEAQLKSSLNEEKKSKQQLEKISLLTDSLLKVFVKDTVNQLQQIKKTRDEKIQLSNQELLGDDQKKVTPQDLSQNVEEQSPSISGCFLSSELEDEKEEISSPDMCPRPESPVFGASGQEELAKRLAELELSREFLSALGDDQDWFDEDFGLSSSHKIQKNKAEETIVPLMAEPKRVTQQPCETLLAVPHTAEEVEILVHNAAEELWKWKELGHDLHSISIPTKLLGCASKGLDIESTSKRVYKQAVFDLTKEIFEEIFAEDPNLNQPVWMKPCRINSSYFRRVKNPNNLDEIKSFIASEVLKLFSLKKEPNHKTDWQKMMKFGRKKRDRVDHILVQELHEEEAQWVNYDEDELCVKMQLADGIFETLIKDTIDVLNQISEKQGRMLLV
UniProt Q9UQN3, whole entry, looked up: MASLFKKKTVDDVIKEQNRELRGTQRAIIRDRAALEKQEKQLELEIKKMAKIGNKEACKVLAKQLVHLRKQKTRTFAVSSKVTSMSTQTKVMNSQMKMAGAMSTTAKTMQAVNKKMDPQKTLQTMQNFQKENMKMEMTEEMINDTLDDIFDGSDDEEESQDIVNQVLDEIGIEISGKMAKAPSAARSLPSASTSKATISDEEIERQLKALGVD
UniProt Q13112, whole entry, looked up: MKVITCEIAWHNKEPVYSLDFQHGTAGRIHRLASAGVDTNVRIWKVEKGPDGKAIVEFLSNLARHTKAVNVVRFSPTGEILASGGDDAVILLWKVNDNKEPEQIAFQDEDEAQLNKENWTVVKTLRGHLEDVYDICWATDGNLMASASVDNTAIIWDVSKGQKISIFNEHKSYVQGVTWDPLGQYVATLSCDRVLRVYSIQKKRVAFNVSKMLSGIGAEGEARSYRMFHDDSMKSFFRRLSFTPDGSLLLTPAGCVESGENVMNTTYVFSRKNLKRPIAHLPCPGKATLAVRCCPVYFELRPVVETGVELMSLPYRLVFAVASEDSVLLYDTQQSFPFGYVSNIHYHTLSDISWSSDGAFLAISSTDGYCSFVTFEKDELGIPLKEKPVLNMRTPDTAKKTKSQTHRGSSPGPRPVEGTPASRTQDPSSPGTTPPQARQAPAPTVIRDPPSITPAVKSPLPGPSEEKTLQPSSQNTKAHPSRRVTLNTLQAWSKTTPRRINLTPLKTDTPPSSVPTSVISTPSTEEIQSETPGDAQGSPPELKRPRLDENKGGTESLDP
UniProt Q9C0F1: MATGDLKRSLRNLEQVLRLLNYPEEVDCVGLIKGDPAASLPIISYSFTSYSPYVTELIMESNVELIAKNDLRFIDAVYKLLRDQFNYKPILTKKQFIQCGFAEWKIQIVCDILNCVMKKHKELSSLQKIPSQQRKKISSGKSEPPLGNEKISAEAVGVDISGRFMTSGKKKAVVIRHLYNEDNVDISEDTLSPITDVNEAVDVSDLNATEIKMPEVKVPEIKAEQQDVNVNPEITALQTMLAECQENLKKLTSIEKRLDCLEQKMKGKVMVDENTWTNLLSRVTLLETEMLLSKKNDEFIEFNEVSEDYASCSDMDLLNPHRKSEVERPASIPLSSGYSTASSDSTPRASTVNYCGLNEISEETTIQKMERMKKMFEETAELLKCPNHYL
UniProt O43633: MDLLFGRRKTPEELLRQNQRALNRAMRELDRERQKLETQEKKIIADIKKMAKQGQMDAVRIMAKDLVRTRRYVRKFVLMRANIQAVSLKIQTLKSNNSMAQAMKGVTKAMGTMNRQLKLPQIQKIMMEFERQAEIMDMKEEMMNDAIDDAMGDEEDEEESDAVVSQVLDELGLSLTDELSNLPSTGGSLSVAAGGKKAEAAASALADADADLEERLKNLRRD
UniProt Q9UKY7: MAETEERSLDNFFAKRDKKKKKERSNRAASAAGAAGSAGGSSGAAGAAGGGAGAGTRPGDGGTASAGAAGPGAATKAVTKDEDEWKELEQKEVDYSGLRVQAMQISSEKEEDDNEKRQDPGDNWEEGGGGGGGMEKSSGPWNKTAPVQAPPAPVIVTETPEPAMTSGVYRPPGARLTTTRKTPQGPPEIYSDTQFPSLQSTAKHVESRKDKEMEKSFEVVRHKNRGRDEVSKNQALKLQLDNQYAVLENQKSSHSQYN
UniProt Q8N5B7: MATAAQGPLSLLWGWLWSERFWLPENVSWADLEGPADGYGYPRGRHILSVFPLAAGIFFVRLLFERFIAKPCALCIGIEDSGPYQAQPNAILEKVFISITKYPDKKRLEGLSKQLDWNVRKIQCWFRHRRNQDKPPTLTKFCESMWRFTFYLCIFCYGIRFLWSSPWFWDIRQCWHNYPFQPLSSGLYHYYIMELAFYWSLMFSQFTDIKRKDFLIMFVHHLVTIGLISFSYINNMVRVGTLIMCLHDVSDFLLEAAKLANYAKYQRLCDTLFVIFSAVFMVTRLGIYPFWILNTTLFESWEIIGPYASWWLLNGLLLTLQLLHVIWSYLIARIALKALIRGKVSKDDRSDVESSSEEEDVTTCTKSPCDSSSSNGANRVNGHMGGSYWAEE

filanesib = compound: CON(C)C(=O)N1N=C(c2cc(F)ccc2F)S[C@@]1(CCCN)c1ccccc1 [filanesib]
How it was run: as §1

zotarolimus = compound: CO[C@H]1C[C@@H]2CC[C@@H](C)[C@@](O)(O2)C(=O)C(=O)N2CCCC[C@H]2C(=O)O[C@H]([C@H](C)C[C@@H]2CC[C@H](n3cnnn3)[C@H](OC)C2)CC(=O)[C@H](C)/C=C(\C)[C@@H](O)[C@@H](OC)C(=O)[C@H](C)C[C@H](C)/C=C/C=C/C=C/1C [zotarolimus]
How it was run: as §1

idasanutlin = compound: COc1cc(C(=O)O)ccc1NC(=O)[C@@H]1N[C@@H](CC(C)(C)C)[C@](C#N)(c2ccc(Cl)cc2F)[C@H]1c1cccc(Cl)c1F [idasanutlin]
How it was run: as §1

alisertib = compound: COc1cc(Nc2ncc3c(n2)-c2ccc(Cl)cc2C(c2c(F)cccc2OC)=NC3)ccc1C(=O)O [alisertib]
How it was run: as §1

[2] = compound: COc1cc2nc(-c3cc(F)ccc3O)nc(N[C@@H]3CNC[C@H]3C(C)(C)O)c2cc1OC
How it was run: as §1

gefitinib = compound: COc1cc2ncnc(Nc3ccc(F)c(Cl)c3)c2cc1OCCCN1CCOCC1 [gefitinib]
How it was run: as §1

[3] = compound: COc1cccc2cc(-c3nc([C@H]4CC[C@H](C(=O)O)CC4)n4ncnc(N)c34)[nH]c12
How it was run: as §1

lapatinib = compound: CS(=O)(=O)CCNCc1ccc(-c2ccc3ncnc(Nc4ccc(OCc5cccc(F)c5)c(Cl)c4)c3c2)o1 [lapatinib]
How it was run: as §1

pictilisib = compound: CS(=O)(=O)N1CCN(Cc2cc3nc(-c4cccc5[nH]ncc45)nc(N4CCOCC4)c3s2)CC1 [pictilisib]
How it was run: as §1

[4] = compound: CS(=O)(=O)c1ccc(-c2cnc(N)c(C(=O)Nc3ccccc3)n2)cc1
How it was run: as §1

crizotinib = compound: C[C@@H](Oc1cc(-c2cnn(C3CCNCC3)c2)cnc1N)c1c(Cl)ccc(F)c1Cl [crizotinib]
How it was run: as §1

[5] = compound: C[C@@H]1COCCN1C2=NC(=NC(=C2)C3(CC3)S(=O)(=O)C)C4=C5C=CNC5=CC=C4
How it was run: as §1

[6] = compound: C[C@H](C1=CC=C(C=C1)C(=O)NC2=C3C=CNC3=NC=C2)N
How it was run: as §1

duvelisib = compound: C[C@H](Nc1ncnc2nc[nH]c12)c1cc2cccc(Cl)c2c(=O)n1-c1ccccc1 [duvelisib]
How it was run: as §1

gandotinib = compound: Cc1cc(Nc2cc(CN3CCOCC3)c3nc(C)c(Cc4ccc(Cl)cc4F)n3n2)n[nH]1 [gandotinib]
How it was run: as §1

tozasertib = compound: Cc1cc(Nc2cc(N3CCN(C)CC3)nc(Sc3ccc(NC(=O)C4CC4)cc3)n2)n[nH]1 [tozasertib]
How it was run: as §1

[7] = compound: Cc1cc(SCc2sc(-c3ccc(C(F)(F)F)cc3)nc2C)ccc1OCC(=O)O
How it was run: as §1

doramapimod = compound: Cc1ccc(-n2nc(C(C)(C)C)cc2NC(=O)Nc2ccc(OCCN3CCOCC3)c3ccccc23)cc1 [doramapimod]
How it was run: as §1

ispinesib = compound: Cc1ccc(C(=O)N(CCCN)[C@@H](c2nc3cc(Cl)ccc3c(=O)n2Cc2ccccc2)C(C)C)cc1 [ispinesib]
How it was run: as §1

Measured: log2 fold change

CDSN (UniProt Q15517)
inactive: [1] 0.704 | filanesib 0.324 | zotarolimus -0.516 | idasanutlin 0.405 | alisertib 1.63 | [2] 0.236 | gefitinib 0.102 | [3] -0.067 | lapatinib -0.096 | pictilisib -0.031 | [4] 0.045 | crizotinib -0.08 | [5] 0.093 | [6] -0.113 | duvelisib -0.255 | gandotinib 0.156 | tozasertib 0.111 | [7] -0.533 | doramapimod -0.126

CDCP1 (UniProt Q9H5V8)
inactive: [1] -0.01 | filanesib 0.024 | zotarolimus -0.027 | idasanutlin -0.005 | alisertib -0.032 | [2] 0.076 | gefitinib 0.03 | [3] 0.06 | lapatinib -0.035 | pictilisib 0.084 | [4] 0.032 | crizotinib 0.09 | [5] 0.005 | [6] -0.049 | duvelisib 0.032 | gandotinib -0.048 | tozasertib 0.039 | [7] -0.024 | doramapimod 0 | ispinesib 0.036

CEP350 (UniProt Q5VT06)
inactive: [1] -0.263 | filanesib 0.111 | zotarolimus 0.113 | idasanutlin 0.031 | alisertib -0.004 | [2] -0.192 | gefitinib 0.055 | [3] -0.214 | lapatinib 0.024 | pictilisib -0.166 | [4] -0.01 | crizotinib -0.013 | [5] -0.015 | [6] 0.263 | duvelisib -0.077 | gandotinib 0.287 | tozasertib 0.148 | [7] 0.131 | doramapimod 0.33 | ispinesib 0.067

CHMP2B (UniProt Q9UQN3)
inactive: [1] -0.028 | filanesib -0.036 | zotarolimus -0.016 | idasanutlin -0.009 | alisertib -0.032 | [2] -0.054 | gefitinib -0.009 | [3] 0.055 | lapatinib 0.081 | pictilisib -0.039 | [4] -0.01 | crizotinib -0.096 | [5] 0 | [6] -0.03 | duvelisib 0.012 | gandotinib 0.019 | tozasertib -0.01 | [7] -0.015 | doramapimod -0.015 | ispinesib -0.058

CHD6 (UniProt Q8TD26)
inactive: [1] -0.666 | filanesib 0.149 | zotarolimus -0.078 | idasanutlin -0.641 | alisertib 0.196 | [2] -0.011 | gefitinib 0.095 | [3] 0.2 | lapatinib 0.071 | pictilisib -0.232 | [4] -0.24 | crizotinib 0.16 | [5] 0.014 | [6] -0.233 | duvelisib -0.528 | gandotinib 0 | tozasertib 0.016 | [7] -0.034 | doramapimod -0.136 | ispinesib 0.001

Retrieved one by one from the list above (2):
CEP350 (UniProt Q5VT06)
inactive: [1] -0.263 | filanesib 0.111 | zotarolimus 0.113 | idasanutlin 0.031 | alisertib -0.004 | [2] -0.192 | gefitinib 0.055 | [3] -0.214 | lapatinib 0.024 | pictilisib -0.166 | [4] -0.01 | crizotinib -0.013 | [5] -0.015 | [6] 0.263 | duvelisib -0.077 | gandotinib 0.287 | tozasertib 0.148 | [7] 0.131 | doramapimod 0.33 | ispinesib 0.067

CDCP1 (UniProt Q9H5V8)
inactive: [1] -0.01 | filanesib 0.024 | zotarolimus -0.027 | idasanutlin -0.005 | alisertib -0.032 | [2] 0.076 | gefitinib 0.03 | [3] 0.06 | lapatinib -0.035 | pictilisib 0.084 | [4] 0.032 | crizotinib 0.09 | [5] 0.005 | [6] -0.049 | duvelisib 0.032 | gandotinib -0.048 | tozasertib 0.039 | [7] -0.024 | doramapimod 0 | ispinesib 0.036

(list continues)

CHAF1B (UniProt Q13112)
inactive: [1] -0.01 | filanesib -0.048 | zotarolimus -0.023 | idasanutlin -0.016 | alisertib -0.079 | [2] 0.041 | gefitinib -0.014 | [3] 0.048 | lapatinib -0.031 | pictilisib 0.047 | [4] -0.011 | crizotinib 0.035 | [5] 0.068 | [6] -0.017 | duvelisib 0.02 | gandotinib -0.002 | tozasertib -0.028 | [7] -0.061 | doramapimod 0.004 | ispinesib 0.003

CENPF (UniProt P49454)
inactive: [1] -0.084 | filanesib 0.179 | zotarolimus 0.01 | idasanutlin 0.13 | alisertib -0.11 | [2] -0.008 | gefitinib -0.003 | [3] -0.082 | lapatinib 0.086 | pictilisib 0.042 | [4] -0.014 | crizotinib 0.043 | [5] -0.105 | [6] 0.084 | duvelisib -0.079 | gandotinib 0.012 | tozasertib 0.091 | [7] -0.059 | doramapimod 0.101 | ispinesib -0.001

CHID1 (UniProt Q9BWS9)
inactive: [1] -0.017 | filanesib 0.054 | zotarolimus -0.001 | idasanutlin 0.039 | alisertib -0.179 | [2] -0.017 | gefitinib -0.017 | [3] -0.101 | lapatinib 0.119 | pictilisib -0.089 | [4] -0.02 | crizotinib 0.023 | [5] -0.116 | [6] 0.103 | duvelisib -0.04 | gandotinib 0.051 | tozasertib 0.015 | [7] 0.032 | doramapimod 0.073 | ispinesib 0.04

CFAP20 (UniProt Q9Y6A4)
inactive: [1] -0.042 | filanesib 0.172 | zotarolimus -0.01 | idasanutlin 0.056 | alisertib -0.062 | [2] -0.134 | gefitinib -0.014 | [3] 0.003 | lapatinib 0.036 | pictilisib -0.095 | [4] 0.003 | crizotinib 0.033 | [5] -0.168 | [6] 0.113 | duvelisib -0.029 | gandotinib 0.062 | tozasertib 0.072 | [7] 0.01 | doramapimod 0.117 | ispinesib -0.101

CEP44 (UniProt Q9C0F1)
inactive: [1] -0.055 | filanesib 0.057 | zotarolimus -0.117 | idasanutlin -0.106 | alisertib -0.028 | [2] 0.06 | gefitinib 0.088 | [3] 0.133 | lapatinib -0.099 | pictilisib 0.089 | [4] -0.087 | crizotinib -0.205 | [5] 0.207 | [6] 0.245 | duvelisib -0.08 | gandotinib -0.044 | tozasertib 0.027 | [7] -0.039 | doramapimod 0.042 | ispinesib -0.103

CDIPT (UniProt O14735)
inactive: [1] -0.045 | filanesib 0.01 | zotarolimus 0.039 | idasanutlin -0.052 | alisertib -0.155 | [2] -0.129 | gefitinib 0.006 | [3] 0.068 | lapatinib -0.096 | pictilisib 0.077 | [4] 0.061 | crizotinib 0.084 | [5] 0.073 | [6] -0.085 | duvelisib 0.128 | gandotinib -0.329 | tozasertib 0.013 | [7] -0.119 | doramapimod 0.018 | ispinesib -0.1

CHMP4A isoform 2 (UniProt Q9BY43)
inactive: [1] -0.018 | filanesib -0.013 | zotarolimus -0.054 | idasanutlin 0.037 | alisertib -0.043 | [2] 0.087 | gefitinib 0.004 | [3] 0.049 | lapatinib -0.078 | pictilisib 0.036 | [4] -0.031 | crizotinib -0.031 | [5] 0.018 | [6] 0.038 | duvelisib 0.017 | gandotinib 0.012 | tozasertib -0.098 | [7] -0.025 | doramapimod 0.02 | ispinesib -0.025

CHMP2A (UniProt O43633)
inactive: [1] 0.03 | filanesib -0.042 | zotarolimus 0.014 | idasanutlin -0.042 | alisertib -0.07 | [2] -0.057 | gefitinib -0.002 | [3] 0.04 | lapatinib -0.022 | pictilisib 0.001 | [4] -0.01 | crizotinib -0.051 | [5] 0.013 | [6] -0.104 | duvelisib 0.006 | gandotinib -0.053 | tozasertib -0.004 | [7] 0.005 | doramapimod -0.007 | ispinesib 0

CDV3 (UniProt Q9UKY7)
inactive: [1] 0.176 | filanesib -0.071 | zotarolimus -0.014 | idasanutlin -0.015 | alisertib -0.065 | [2] 0.022 | gefitinib -0.009 | [3] 0.065 | lapatinib 0.004 | pictilisib -0.011 | [4] -0.029 | crizotinib -0.007 | [5] 0.002 | [6] -0.062 | duvelisib 0.017 | gandotinib -0.088 | tozasertib -0.011 | [7] -0.051 | doramapimod 0.053 | ispinesib 0.028

CDS2 (UniProt O95674)
inactive: [1] -0.085 | filanesib -0.023 | zotarolimus -0.095 | idasanutlin -0.009 | alisertib -0.1 | [2] -0.052 | gefitinib -0.04 | [3] 0.029 | lapatinib 0.037 | pictilisib -0.061 | [4] 0.008 | crizotinib 0.02 | [5] -0.018 | [6] 0.04 | duvelisib 0.074 | gandotinib -0.047 | tozasertib 0.045 | [7] 0.023 | doramapimod 0.027 | ispinesib 0.006

CERS5 (UniProt Q8N5B7)
inactive: [1] -0.034 | filanesib -0.265 | zotarolimus -0.055 | idasanutlin 0.369 | alisertib -0.122 | [2] -0.046 | gefitinib 0.032 | [3] 0.03 | lapatinib -0.014 | pictilisib 0.081 | [4] -0.044 | crizotinib -0.038 | [5] 0.005 | [6] 0.028 | duvelisib 0.16 | gandotinib -0.148 | tozasertib 0.06 | [7] 0.042 | doramapimod -0.061 | ispinesib -0.114

— the supplement of paper PMC10849652
